Laboratory results: publication PMC3630105

Protein sequences, listed by entry. Tags and fused reporters are not part of them. Lines headed by an entry give the natural chain unless they say otherwise; changes in a name come on top.
UniProt Q9VAJ1: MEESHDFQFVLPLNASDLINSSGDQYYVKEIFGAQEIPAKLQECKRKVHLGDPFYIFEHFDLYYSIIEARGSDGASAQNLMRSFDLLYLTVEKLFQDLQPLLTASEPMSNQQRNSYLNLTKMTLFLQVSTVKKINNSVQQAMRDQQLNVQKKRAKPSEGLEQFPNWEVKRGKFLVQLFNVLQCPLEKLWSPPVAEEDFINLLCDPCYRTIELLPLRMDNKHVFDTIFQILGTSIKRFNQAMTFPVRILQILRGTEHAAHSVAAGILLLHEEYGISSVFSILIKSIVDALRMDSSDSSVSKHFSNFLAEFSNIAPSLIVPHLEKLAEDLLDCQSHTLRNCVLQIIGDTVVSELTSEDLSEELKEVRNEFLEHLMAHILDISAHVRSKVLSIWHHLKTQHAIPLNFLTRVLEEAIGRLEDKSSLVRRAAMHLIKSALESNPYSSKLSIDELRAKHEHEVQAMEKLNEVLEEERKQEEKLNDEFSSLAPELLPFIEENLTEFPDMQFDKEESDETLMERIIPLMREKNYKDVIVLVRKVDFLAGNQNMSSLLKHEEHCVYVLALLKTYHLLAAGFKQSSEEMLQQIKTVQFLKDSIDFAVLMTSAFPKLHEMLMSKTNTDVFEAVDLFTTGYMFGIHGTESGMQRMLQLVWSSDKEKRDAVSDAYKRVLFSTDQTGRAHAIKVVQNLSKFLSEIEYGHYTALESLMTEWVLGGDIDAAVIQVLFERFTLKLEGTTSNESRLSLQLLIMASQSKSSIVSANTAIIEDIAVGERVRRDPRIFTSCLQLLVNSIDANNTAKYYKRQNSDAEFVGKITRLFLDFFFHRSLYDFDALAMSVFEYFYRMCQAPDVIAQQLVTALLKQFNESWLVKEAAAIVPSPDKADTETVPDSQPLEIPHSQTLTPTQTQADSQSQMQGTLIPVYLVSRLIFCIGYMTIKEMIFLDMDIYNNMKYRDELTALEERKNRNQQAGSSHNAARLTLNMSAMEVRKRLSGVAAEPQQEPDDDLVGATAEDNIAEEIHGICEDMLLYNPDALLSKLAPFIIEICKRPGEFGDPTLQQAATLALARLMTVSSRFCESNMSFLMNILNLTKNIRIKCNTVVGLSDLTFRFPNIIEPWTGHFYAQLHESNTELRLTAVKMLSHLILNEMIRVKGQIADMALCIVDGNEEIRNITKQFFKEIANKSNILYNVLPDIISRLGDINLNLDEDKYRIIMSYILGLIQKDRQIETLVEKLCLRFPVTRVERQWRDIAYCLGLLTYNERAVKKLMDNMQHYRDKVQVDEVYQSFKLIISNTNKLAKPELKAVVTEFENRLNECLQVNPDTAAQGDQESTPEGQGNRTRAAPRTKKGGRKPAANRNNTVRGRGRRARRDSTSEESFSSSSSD

Assays:
hSecurin-HFHF (human) = target: T1, hSecurin-HFHF (human) (UniProt O95997); experiment: co-IP; proteins co-translated in vitro with [35S]methionine (reticulocyte lysate); anti-Flag agarose, 3 h at 4°C; autoradiography
T1 sequence: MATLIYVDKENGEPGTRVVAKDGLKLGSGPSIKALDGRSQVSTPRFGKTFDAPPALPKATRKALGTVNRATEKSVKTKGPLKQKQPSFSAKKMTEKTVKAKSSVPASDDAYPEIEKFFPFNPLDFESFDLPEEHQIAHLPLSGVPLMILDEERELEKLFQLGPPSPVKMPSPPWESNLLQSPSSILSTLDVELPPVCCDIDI

[1] = target: T2, Barren-HFHF (Drosophila melanogaster) (UniProt P91663); experiment: as above
T2 sequence: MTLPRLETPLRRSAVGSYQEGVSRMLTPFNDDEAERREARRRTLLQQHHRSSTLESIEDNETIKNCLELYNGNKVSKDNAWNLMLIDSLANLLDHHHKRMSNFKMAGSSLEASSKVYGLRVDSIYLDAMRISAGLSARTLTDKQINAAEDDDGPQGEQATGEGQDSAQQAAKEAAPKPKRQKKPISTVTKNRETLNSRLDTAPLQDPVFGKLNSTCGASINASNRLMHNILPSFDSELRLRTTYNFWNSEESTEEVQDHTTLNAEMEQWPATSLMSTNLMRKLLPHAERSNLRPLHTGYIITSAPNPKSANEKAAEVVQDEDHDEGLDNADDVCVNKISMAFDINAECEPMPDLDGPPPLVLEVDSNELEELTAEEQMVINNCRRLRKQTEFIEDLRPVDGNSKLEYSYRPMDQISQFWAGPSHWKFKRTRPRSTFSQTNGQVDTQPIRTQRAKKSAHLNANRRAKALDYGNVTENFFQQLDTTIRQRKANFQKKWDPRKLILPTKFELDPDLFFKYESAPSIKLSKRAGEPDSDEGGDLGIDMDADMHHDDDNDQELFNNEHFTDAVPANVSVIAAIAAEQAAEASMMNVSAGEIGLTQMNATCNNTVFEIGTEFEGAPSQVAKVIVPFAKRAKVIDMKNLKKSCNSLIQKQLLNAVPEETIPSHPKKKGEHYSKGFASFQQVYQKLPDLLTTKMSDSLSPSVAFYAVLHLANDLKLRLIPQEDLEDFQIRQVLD

[2] = target: T2, Barren-HFHF (Drosophila melanogaster); experiment: co-IP; proteins translated in vitro in separate reactions with or without [35S]methionine, mixed; anti-Flag agarose, 3 h at 4°C; autoradiography and anti-Flag immunoblot
[3] = target: Cap-G^FL-EGFP (Drosophila melanogaster); experiment: co-IP; extracts of embryos expressing EGFP-fused Cap-G fragments; rabbit anti-EGFP antibodies cross-linked to Protein A-Sepharose; 4°C; lysis buffer 50 mM HEPES pH 7.5, 60 mM NaCl, 0.2% Triton X-100, 0.2% NP-40; elution in two steps; silver staining and immunoblot (Cap-D2, Cap-H/Barren)
[4] = target: myc-Cap-D2 (Drosophila melanogaster) (UniProt Q9VAJ1); experiment: co-IP; proteins translated in vitro in separate reactions with or without [35S]methionine, mixed (two or three proteins); anti-myc antibody beads, 3 h at 4°C; autoradiography and anti-myc immunoblot

| Molecule | binding (hSecurin-HFHF (human)) | binding [1] | binding [2] | binding [3] | binding [4] |
| --- | --- | --- | --- | --- | --- |
| SMC4 (in vitro translated) (Drosophila melanogaster) | no binding | binds |  |  |  |
| Cap-G (in vitro translated) (Drosophila melanogaster) | no binding | binds | binds |  |  |
| Cap-D2 (in vitro translated) (from UniProt Q9VAJ1) | no binding | binds |  |  |  |
| Cap-H/Barren (endogenous) (protein, UniProt P91663 1-736) MTLPRLETPLRRSAVGSYQEGVSRMLTPFNDDEAERREARRRTLLQQHHRSSTLESIEDNETIKNCLELYNGNKVSKDNAWNLMLIDSLANLLDHHHKRMSNFKMAGSSLEASSKVYGLRVDSIYLDAMRISAGLSARTLTDKQINAAEDDDGPQGEQATGEGQDSAQQAAKEAAPKPKRQKKPISTVTKNRETLNSRLDTAPLQDPVFGKLNSTCGASINASNRLMHNILPSFDSELRLRTTYNFWNSEESTEEVQDHTTLNAEMEQWPATSLMSTNLMRKLLPHAERSNLRPLHTGYIITSAPNPKSANEKAAEVVQDEDHDEGLDNADDVCVNKISMAFDINAECEPMPDLDGPPPLVLEVDSNELEELTAEEQMVINNCRRLRKQTEFIEDLRPVDGNSKLEYSYRPMDQISQFWAGPSHWKFKRTRPRSTFSQTNGQVDTQPIRTQRAKKSAHLNANRRAKALDYGNVTENFFQQLDTTIRQRKANFQKKWDPRKLILPTKFELDPDLFFKYESAPSIKLSKRAGEPDSDEGGDLGIDMDADMHHDDDNDQELFNNEHFTDAVPANVSVIAAIAAEQAAEASMMNVSAGEIGLTQMNATCNNTVFEIGTEFEGAPSQVAKVIVPFAKRAKVIDMKNLKKSCNSLIQKQLLNAVPEETIPSHPKKKGEHYSKGFASFQQVYQKLPDLLTTKMSDSLSPSVAFYAVLHLANDLKLRLIPQEDLEDFQIRQVLD |  |  |  | binds |  |
| Cap-H/Barren (in vitro translated, no epitope tag) (protein, UniProt P91663 1-736) MTLPRLETPLRRSAVGSYQEGVSRMLTPFNDDEAERREARRRTLLQQHHRSSTLESIEDNETIKNCLELYNGNKVSKDNAWNLMLIDSLANLLDHHHKRMSNFKMAGSSLEASSKVYGLRVDSIYLDAMRISAGLSARTLTDKQINAAEDDDGPQGEQATGEGQDSAQQAAKEAAPKPKRQKKPISTVTKNRETLNSRLDTAPLQDPVFGKLNSTCGASINASNRLMHNILPSFDSELRLRTTYNFWNSEESTEEVQDHTTLNAEMEQWPATSLMSTNLMRKLLPHAERSNLRPLHTGYIITSAPNPKSANEKAAEVVQDEDHDEGLDNADDVCVNKISMAFDINAECEPMPDLDGPPPLVLEVDSNELEELTAEEQMVINNCRRLRKQTEFIEDLRPVDGNSKLEYSYRPMDQISQFWAGPSHWKFKRTRPRSTFSQTNGQVDTQPIRTQRAKKSAHLNANRRAKALDYGNVTENFFQQLDTTIRQRKANFQKKWDPRKLILPTKFELDPDLFFKYESAPSIKLSKRAGEPDSDEGGDLGIDMDADMHHDDDNDQELFNNEHFTDAVPANVSVIAAIAAEQAAEASMMNVSAGEIGLTQMNATCNNTVFEIGTEFEGAPSQVAKVIVPFAKRAKVIDMKNLKKSCNSLIQKQLLNAVPEETIPSHPKKKGEHYSKGFASFQQVYQKLPDLLTTKMSDSLSPSVAFYAVLHLANDLKLRLIPQEDLEDFQIRQVLD |  |  |  |  | binds |

No constants are given. Whether binding was seen depends on the method and setting. Binding seen in cells or lysates may run through a third protein. For part of these data: Binding calls can cover weak binding; strength is not graded here. For part of these data: Sequences can lack the tags named with a protein.
